Source: PMC13086584
Results are given in words; binding and its absence hold for the method and conditions named. Binding seen in cells or lysates may run through a third protein. Some binding calls cover weakened binding; strength is not graded here. One block for each substance: values may come before it.

Sequences of proteins named here, by UniProt entry; tags and fusion partners are left off.
UniProt P35637: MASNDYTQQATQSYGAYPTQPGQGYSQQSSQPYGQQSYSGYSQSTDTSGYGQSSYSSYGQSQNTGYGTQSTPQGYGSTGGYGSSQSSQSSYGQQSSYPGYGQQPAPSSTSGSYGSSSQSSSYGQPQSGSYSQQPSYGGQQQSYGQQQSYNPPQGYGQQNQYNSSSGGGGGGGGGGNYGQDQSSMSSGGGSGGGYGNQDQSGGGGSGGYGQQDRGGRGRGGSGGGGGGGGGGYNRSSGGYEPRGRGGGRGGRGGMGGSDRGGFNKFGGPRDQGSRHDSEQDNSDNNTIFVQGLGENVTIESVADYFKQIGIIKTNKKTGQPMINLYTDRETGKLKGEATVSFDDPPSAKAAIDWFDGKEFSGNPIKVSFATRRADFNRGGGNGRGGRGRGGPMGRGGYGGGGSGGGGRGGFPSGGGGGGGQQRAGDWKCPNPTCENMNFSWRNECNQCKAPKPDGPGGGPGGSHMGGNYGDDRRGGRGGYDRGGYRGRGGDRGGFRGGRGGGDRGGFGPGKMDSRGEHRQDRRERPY
UniProt Q13148: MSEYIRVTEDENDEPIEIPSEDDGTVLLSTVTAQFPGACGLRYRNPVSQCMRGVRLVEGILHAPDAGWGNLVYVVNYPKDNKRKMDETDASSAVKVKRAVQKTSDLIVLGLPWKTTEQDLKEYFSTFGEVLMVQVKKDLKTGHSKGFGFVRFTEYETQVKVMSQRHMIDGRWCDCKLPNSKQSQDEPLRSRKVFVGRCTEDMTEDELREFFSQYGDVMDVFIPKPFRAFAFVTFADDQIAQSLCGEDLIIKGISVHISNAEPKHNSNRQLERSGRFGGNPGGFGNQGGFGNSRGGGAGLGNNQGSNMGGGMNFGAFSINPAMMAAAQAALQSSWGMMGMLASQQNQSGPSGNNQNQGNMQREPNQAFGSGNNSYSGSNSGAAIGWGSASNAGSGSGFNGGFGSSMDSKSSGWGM

Tests used:
[1] = biological target: full-length FUS (N-terminal GFP) (UniProt P35637); test: co-IP; FUS-KO SH-SY5Y cells expressing GFP-tagged FUS variants at a near-endogenous level, soluble extracts in 1% TritonX-100–PBS; GFP-Trap beads 3 h at 4 °C; western blot
[2] = biological target: FUS (endogenous, HeLa cells) (human (endogenous in HeLa)) (UniProt P35637); test: proximity ligation; PLA counted within SFPQ-labelled paraspeckles
[3] = biological target: TDP-43 GFP (wild type, full-length, N-terminal GFP) (UniProt Q13148); test: co-IP; HeLa cells expressing TDP-43 GFP variants, lysed in 1% TritonX-100–PBS; GFP-Trap beads 3 h at 4 °C; western blot

binding [1]: binds
Substance: TDP-43 (in FUS-KO SH-SY5Y cells) (from UniProt Q13148 1-414)

binding [2]: binds weakly
Substance: TDP-43 (endogenous, HeLa cells) (from UniProt Q13148 1-414)

binding [3]: binds weakly
Substance: FUS (endogenous, HeLa cells) (from UniProt P35637 1-526)
